## Primary screen of a compound library

Chains of the proteins cited; added tags and fusions are not shown.
UniProt E9BF75, entry or part of it: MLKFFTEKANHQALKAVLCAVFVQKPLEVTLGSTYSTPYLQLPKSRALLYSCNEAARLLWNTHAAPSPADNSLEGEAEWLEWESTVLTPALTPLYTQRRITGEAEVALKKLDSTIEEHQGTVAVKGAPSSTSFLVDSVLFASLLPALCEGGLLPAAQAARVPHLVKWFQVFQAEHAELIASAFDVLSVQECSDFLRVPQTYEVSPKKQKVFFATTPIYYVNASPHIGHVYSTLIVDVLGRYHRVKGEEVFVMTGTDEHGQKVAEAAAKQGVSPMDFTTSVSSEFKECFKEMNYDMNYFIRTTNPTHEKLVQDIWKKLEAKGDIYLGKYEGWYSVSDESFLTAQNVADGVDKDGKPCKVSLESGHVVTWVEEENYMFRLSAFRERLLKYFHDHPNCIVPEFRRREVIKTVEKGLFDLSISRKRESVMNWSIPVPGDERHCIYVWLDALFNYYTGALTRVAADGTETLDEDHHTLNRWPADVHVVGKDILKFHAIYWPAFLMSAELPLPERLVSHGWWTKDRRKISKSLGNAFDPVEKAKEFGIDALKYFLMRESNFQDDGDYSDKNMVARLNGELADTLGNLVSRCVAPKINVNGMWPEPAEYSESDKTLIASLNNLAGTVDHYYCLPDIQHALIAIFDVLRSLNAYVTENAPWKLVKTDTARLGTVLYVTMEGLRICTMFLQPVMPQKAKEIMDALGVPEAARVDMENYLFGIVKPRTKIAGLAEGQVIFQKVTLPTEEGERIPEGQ

Measurements from “University of Dundee, Small-Polar-MMV Screening Library” (2021), ChEMBL document CHEMBL3988442.

Results are percentages, as filed. The record does not define 0% and 100%; most values in the screen are far below 50% and negative numbers occur (in some assays of this library far below -100). The compounds are a random part of those screened.

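Primary screen of methionyl-tRNA synthetase; the read-out is not stated. Target: Methionyl-tRNA synthetase (putative), Leishmania donovani (UniProt E9BF75). The test concentration is not given. The values are filed as inhibition. Of about 68,000 compounds tested this way, about 24 (0.035%) reached 50% or more in at least one test.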

COCCC1(C(=O)O)CCCN(CC(=O)NCCc2ccccc2)C1 (stereo not shown) gave -2.721%. With COc1ccccc1C1=NOC(CC2(C(=O)NC(C)C)CCOCC2)C1 (stereo not shown) the screen gave 12.86%. For CCN(CC)[C@@H]1CN(C(=O)c2ccc(C#N)cc2)[C@@H]2CCCO[C@H]12 the result was 1.449%. Result for CC(=O)N1CCCN(Cc2csc(-c3ncccn3)n2)CC1 was 15.49%. With CCSc1nnc([C@@H](N)CC(C)C)o1 the screen gave 10.78%. With CS(=O)(=O)N1CC(c2n[nH]c3ncccc23)C1 the screen gave 7.097%. For CC(Cn1cc(Cl)cn1)C(=O)Nc1ccc(CN2CCCCCC2)cc1 (stereo not shown) the result was 8.571%.

Result for Cn1nc(CNC(=O)C2CCCC2)cc1C1CC1 was 6.863%. With CN1CCN(C(=O)CCCc2ccccn2)c2ccc(F)cc21 the screen gave 3.623%. For COc1cccc(CNc2nc(C)cc(C)n2)c1OC the result was 4.57%. CC(=O)NCC(=O)N1CCn2cc(CN(C)Cc3ccco3)nc2C1 read 2.837%. Result for CN1CC=C(CCN(C)C(=O)CCc2ccccc2)CC1 was 19.05%. With C[C@@]1(O)CCN(Cc2cc[nH]n2)C[C@H]1Oc1cccc(F)c1 the screen gave 12.94%. Result for CNC(=O)C1(CCCc2ccccn2)CCN1Cc1coc(C)n1 (stereo not shown) was 6.032%.

Result for CCc1ccc(C(C)NC(=O)N2CCC(n3cncn3)CC2)cc1 (stereo not shown) was 6.704%. Result for CN(C)C1Cc2ccccc2N(S(=O)(=O)c2cccc(C#N)c2)C1 (stereo not shown) was 14.38%. N#Cc1ccc(SCCCO)c(F)c1 read 16.48%. For Cc1cnn(C2CCCN(C(=O)c3cc(Cl)c4c(c3)OCO4)C2)c1 (stereo not shown) the result was 2.579%. Result for CN(C)Cc1cccc(-c2cccnc2C(=O)NCc2cn(C)cn2)c1 was 9.302%. For CN(C)C(=O)CNC(=O)Nc1cccc(Cl)c1SC(F)F the result was 14.16%. With Cc1cc(CN2CCN(C(=O)NC(C)c3ccncc3)CC2)on1 (stereo not shown) the screen gave 15.3%.

CCOc1c(Br)cc(CNC(C)c2nnc3n2CCC3)cc1OC (stereo not shown) read 12.26%. For CC(NC(=O)NCCCN(C(C)C)S(C)(=O)=O)c1ccncc1 (stereo not shown) the result was 22.64%. O=C(NC1CCN(c2ncccn2)CC1)c1cc2c([nH]c1=O)CCC2 read 14.78%. Cc1nc(C)n(CCCNc2ncnc(C)c2C)n1 gave 8.163%. CC(=O)NCc1cccc(-n2ccnc2-c2cccc(C(=O)O)c2)c1 read 7.843%. Cc1cnn(CCNC(C)c2nnc(-c3ccccc3)o2)c1 (stereo not shown) gave 5.923%. With Cc1c[nH]nc1C1CN(c2ncccn2)CCO1 (stereo not shown) the screen gave 6.854%.

Result for Cc1cnccc1CN1CC[C@@](C)(O)[C@H](Oc2cccc(F)c2)C1 was 15.29%. CC(c1ccc(Cl)cc1)N1CCN(CCS(C)(=O)=O)CC1 (stereo not shown) read 16.3%. CC(C)c1noc(C(C)S(=O)(=O)Cc2nc(C3CC3)no2)n1 (stereo not shown) read 10.87%. CCN(Cc1cc(Cl)ccc1OC)Cc1cc(C)nn1C read 10.31%. With O=C(NCCn1nc(-n2cncn2)ccc1=O)c1ccsc1 the screen gave 6.775%. CN(C)c1cc(C(=O)N2CCCC2c2cnn(C)c2)ccn1 (stereo not shown) read 2.514%. With OC1(Cn2ccc3ncccc32)CCN(Cc2ccccn2)CC1 the screen gave -1.712%.

CC1CCN(C(=O)CN2CCC(c3n[nH]c(C4CC4)n3)CC2)CC1 gave 12.9%. With COCCc1noc(CN2CCCC2Cn2cc(C)cn2)n1 (stereo not shown) the screen gave 4.196%. Cc1cc(C(=O)N2CCN(C(=O)Cc3ccccn3)CC2)c(C)s1 read 20.83%.

Repeated from the top, 4 entries:

| SMILES | Inhibition |
|---|---|
| `COCCC1(C(=O)O)CCCN(CC(=O)NCCc2ccccc2)C1` (stereo not shown) | -2.721% |
| `COc1ccccc1C1=NOC(CC2(C(=O)NC(C)C)CCOCC2)C1` (stereo not shown) | 12.86% |
| `CCN(CC)[C@@H]1CN(C(=O)c2ccc(C#N)cc2)[C@@H]2CCCO[C@H]12` | 1.449% |
| `CC(=O)N1CCCN(Cc2csc(-c3ncccn3)n2)CC1` | 15.49% |